We go through 1 compound from patent US7276484B2, “Dipeptide inhibitors of β-secretase” (Elan Pharmaceuticals, Inc., priority 1999, dated 2007).

The chains behind the UniProt entries cited, without tags or fusion partners. Residues count along the entry.
UniProt P56817, 46-501 limits assumed: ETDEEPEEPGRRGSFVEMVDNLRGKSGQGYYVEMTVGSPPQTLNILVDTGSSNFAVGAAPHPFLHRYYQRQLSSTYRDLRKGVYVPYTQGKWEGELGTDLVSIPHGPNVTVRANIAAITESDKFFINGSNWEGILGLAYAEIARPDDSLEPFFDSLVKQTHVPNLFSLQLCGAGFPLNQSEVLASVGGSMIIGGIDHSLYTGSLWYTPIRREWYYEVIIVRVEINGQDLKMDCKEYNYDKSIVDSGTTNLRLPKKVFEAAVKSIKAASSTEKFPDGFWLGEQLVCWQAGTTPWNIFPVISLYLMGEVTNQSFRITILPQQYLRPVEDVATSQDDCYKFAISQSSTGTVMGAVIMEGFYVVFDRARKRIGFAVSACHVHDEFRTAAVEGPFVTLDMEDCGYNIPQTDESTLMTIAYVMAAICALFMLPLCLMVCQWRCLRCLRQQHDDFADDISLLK

For the assay, the target named is Human brain β-Secretase (Homo sapiens, UniProt P56817). The assay is described as follows: MBP-C125 enzyme inhibition assay (ELISA detection of β-secretase cleavage of MBP-C125 substrate). The following applies: read-out: IC50 Grouping, pH 4.5, 37° C., 90 minutes. A general note: An ELISA detects its analyte on a solid surface through an enzyme-linked reagent.

The match of structure and compound is tentative.

Turning to `CC(C)C[C@H](NC(=O)[C@H](O)c1cccc2ccccc12)[C@@H](O)CC(=O)N[C@H](C(=O)NCCc1ccc(C(=O)O)cc1)C(C)C`, the IC50 fell in the range of 100 to 200 µM.

Broadly, the IC50 is the concentration that inhibits the measured activity by half.
